Results on two molecules are retold here after PMC11390906.

Results are given in words; binding and its absence hold for the method and conditions named. Binding seen in cells or lysates may run through a third protein. Binding calls can cover weak binding; strength is not graded here.

The target of the assay is purified human coagulation factor XII (FXII) zymogen (human). Put plainly: co-IP; same experiment as a5, for the uPAR-based peptides (300 µM, 1 h pretreatment) and the purified FXII (62 nM, Zn2+ 10 µM, 24 h) added to HKC-8 cells; read out as FXII co-precipitated with uPAR; both purified.

With DVVTHWIQEGEEGRPKDDRH [uPAR-based peptide DV20 (domain 2, residues 146-165)], the binding entry is “binds”.
With DLCNQGNSGRAVTYSRSRY [uPAR-based peptide DL19 (domain 1, residues 96-114)] the entry was “binds”.
